Values quoted from earlier work, collected in patent US10607721B2, “High-throughput, multi-omics approach to determine and validate de novo global mechanisms of action for drugs and toxins” (Vanderbilt University, priority 2015, dated 2020).

System: A549 cells
Conditions: literature (Yang et al., 2013; Zhang et al., 2015); cited from earlier work

## N.N.[Cl][Pt][Cl] [cisplatin]
  IC50: 18 to 64 µM
